Measured values taken from the supplement of paper PMC10849652.
This is one part of the list.

The chains behind the UniProt entries cited, without tags or fusion partners. Where a name states a change or a piece, a line headed by the entry shows the natural chain unless it says otherwise.
UniProt P53597: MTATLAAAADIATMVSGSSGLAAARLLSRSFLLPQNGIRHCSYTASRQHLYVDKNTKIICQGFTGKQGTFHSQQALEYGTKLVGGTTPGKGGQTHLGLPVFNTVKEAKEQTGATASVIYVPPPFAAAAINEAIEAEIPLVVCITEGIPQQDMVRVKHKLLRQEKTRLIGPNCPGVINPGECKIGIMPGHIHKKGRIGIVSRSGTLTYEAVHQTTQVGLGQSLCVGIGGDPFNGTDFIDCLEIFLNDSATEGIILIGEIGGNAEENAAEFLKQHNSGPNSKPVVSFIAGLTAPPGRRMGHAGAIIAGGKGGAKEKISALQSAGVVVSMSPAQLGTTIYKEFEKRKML
UniProt O00268, whole entry, looked up: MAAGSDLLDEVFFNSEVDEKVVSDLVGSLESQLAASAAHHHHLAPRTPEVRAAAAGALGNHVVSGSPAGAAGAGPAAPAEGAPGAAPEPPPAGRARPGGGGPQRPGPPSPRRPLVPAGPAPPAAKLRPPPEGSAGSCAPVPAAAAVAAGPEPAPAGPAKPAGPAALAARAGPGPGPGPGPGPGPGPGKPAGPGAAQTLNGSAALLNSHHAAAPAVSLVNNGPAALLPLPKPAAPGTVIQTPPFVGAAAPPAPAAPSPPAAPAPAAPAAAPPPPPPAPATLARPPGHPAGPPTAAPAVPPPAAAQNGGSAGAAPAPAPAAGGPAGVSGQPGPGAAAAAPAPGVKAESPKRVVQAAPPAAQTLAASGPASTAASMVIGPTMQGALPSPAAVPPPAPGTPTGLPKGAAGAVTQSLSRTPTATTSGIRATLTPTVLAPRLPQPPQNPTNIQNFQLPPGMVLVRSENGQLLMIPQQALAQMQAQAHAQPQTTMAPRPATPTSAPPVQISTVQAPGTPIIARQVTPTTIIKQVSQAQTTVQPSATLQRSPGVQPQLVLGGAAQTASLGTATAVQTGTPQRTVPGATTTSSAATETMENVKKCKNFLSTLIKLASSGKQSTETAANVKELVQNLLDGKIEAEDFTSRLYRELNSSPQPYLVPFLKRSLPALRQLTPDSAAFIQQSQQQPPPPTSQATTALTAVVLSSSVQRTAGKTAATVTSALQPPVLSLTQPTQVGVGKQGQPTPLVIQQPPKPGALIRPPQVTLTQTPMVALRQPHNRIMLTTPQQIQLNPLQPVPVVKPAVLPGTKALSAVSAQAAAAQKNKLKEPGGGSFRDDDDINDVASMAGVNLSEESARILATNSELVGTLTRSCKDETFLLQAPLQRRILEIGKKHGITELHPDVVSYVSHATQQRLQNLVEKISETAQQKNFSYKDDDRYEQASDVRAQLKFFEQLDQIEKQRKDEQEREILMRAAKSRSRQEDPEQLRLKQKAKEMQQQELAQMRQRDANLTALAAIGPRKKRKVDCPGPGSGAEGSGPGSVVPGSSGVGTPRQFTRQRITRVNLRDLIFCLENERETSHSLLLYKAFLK
UniProt Q15526: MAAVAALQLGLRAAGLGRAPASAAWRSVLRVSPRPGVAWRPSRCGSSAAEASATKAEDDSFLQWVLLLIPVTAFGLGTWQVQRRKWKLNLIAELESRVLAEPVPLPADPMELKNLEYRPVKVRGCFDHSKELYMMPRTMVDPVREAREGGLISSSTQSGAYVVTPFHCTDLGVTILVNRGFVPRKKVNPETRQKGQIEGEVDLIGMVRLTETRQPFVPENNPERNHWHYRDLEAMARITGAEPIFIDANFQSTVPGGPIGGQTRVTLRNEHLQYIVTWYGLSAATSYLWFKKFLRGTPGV
UniProt Q4KMP7: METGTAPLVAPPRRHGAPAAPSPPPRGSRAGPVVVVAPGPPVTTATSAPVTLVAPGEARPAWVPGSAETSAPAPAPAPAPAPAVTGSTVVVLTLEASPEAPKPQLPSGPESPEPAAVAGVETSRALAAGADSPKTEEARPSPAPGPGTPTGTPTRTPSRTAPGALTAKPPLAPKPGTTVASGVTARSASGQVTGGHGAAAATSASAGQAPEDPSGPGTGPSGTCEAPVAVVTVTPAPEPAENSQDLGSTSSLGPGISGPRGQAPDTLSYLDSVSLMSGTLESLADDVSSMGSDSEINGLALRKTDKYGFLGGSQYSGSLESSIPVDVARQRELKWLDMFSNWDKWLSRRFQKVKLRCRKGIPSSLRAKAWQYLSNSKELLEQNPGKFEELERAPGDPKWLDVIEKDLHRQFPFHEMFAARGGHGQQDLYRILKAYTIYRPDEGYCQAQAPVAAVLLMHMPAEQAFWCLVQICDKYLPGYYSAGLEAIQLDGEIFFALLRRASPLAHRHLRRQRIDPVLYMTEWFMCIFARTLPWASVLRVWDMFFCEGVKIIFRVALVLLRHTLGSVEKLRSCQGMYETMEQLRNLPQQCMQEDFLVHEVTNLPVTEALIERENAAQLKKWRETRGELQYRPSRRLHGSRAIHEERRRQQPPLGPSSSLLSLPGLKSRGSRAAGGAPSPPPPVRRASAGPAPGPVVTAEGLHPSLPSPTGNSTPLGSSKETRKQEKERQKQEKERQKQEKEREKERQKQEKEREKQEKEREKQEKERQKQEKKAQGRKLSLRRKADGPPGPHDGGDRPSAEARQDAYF
UniProt Q9P2R7: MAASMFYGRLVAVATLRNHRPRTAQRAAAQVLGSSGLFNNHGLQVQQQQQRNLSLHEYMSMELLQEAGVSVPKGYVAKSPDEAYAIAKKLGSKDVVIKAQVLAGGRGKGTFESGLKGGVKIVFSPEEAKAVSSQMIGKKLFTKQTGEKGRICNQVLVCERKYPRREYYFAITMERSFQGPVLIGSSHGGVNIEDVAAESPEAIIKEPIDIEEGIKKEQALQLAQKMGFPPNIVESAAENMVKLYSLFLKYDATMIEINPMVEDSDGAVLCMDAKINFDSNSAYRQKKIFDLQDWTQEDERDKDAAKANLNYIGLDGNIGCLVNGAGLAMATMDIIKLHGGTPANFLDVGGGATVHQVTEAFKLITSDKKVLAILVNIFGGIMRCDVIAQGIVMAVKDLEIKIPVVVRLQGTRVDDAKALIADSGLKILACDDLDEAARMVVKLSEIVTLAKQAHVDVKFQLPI
UniProt O15056: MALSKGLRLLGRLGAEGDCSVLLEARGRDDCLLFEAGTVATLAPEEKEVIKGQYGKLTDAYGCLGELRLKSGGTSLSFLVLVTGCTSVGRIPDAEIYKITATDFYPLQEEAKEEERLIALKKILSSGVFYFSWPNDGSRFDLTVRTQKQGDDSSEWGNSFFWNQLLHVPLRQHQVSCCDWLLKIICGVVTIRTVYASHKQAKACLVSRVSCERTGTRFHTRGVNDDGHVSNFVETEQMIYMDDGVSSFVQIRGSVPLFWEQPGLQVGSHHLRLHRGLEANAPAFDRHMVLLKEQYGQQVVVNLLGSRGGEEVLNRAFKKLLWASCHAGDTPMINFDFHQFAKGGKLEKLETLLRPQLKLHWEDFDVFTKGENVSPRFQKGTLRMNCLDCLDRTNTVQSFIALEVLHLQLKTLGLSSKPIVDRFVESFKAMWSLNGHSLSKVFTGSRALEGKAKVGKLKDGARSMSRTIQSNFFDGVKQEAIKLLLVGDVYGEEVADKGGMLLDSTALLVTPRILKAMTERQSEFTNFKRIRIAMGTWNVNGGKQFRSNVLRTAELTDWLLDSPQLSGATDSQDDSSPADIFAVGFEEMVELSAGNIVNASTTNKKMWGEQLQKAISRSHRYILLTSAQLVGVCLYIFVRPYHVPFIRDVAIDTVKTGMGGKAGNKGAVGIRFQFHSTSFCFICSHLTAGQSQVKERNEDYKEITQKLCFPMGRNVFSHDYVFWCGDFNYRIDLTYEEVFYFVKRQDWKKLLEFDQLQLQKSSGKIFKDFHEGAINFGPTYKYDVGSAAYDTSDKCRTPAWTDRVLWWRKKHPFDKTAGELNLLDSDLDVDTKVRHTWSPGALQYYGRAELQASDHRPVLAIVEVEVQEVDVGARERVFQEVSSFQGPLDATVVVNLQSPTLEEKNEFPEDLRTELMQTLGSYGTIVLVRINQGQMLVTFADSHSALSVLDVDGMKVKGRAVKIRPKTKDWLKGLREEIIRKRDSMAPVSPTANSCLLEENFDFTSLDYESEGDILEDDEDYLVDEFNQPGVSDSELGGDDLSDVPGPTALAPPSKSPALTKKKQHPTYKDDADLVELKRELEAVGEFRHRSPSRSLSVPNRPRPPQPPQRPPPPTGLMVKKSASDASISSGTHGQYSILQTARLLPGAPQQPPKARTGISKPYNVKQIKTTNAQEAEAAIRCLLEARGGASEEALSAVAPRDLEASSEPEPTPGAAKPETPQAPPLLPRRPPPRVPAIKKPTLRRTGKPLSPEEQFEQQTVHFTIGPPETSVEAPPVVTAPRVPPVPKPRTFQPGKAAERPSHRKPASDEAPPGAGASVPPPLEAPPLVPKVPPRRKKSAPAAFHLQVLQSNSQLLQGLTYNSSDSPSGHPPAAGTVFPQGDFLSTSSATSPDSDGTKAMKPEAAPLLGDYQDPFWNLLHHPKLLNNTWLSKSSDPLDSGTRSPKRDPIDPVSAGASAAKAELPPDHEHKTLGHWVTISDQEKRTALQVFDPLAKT
UniProt Q13043: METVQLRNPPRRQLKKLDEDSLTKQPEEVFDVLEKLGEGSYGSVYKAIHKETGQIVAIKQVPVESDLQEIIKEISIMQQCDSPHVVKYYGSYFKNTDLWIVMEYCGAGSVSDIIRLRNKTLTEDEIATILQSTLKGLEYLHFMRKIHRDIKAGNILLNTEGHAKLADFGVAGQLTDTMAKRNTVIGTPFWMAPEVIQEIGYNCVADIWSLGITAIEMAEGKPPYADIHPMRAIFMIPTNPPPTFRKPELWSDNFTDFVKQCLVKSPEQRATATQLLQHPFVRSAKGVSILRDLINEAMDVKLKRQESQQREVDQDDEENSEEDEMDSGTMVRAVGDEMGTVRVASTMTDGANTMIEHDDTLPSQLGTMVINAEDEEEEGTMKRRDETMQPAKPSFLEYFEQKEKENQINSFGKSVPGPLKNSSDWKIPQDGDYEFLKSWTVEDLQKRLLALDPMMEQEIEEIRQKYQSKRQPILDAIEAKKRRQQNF
UniProt Q15022: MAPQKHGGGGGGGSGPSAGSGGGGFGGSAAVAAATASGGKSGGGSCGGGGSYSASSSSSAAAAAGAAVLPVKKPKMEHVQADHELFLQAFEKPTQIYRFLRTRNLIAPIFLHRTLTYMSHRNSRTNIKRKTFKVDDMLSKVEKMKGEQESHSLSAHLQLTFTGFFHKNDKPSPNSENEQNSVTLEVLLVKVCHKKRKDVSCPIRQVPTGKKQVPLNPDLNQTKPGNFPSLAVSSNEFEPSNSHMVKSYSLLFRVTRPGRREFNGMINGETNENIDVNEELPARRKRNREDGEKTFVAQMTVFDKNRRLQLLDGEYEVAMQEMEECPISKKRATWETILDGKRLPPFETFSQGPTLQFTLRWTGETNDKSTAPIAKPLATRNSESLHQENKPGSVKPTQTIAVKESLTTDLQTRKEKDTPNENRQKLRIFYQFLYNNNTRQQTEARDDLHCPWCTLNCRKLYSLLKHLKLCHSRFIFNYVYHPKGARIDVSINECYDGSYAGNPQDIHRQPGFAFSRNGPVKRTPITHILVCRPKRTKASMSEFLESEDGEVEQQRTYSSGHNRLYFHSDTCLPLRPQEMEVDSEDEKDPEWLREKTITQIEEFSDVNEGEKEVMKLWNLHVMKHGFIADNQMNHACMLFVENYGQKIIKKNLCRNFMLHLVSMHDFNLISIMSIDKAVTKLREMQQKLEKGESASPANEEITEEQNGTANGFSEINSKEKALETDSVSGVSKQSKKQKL
UniProt Q8TDR2: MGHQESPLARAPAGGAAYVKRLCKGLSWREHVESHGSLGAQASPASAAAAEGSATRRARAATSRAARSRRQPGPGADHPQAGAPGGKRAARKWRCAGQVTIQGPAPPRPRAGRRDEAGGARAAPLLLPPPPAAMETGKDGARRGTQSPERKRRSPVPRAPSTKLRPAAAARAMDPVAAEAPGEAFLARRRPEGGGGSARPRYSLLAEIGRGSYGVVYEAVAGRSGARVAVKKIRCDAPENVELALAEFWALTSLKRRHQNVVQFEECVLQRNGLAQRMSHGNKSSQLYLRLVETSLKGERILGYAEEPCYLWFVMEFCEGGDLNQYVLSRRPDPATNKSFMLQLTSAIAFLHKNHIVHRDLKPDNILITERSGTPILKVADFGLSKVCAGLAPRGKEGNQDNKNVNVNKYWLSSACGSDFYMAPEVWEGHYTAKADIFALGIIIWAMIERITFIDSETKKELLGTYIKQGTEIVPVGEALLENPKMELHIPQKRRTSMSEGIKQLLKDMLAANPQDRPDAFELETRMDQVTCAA
UniProt Q6P1N9: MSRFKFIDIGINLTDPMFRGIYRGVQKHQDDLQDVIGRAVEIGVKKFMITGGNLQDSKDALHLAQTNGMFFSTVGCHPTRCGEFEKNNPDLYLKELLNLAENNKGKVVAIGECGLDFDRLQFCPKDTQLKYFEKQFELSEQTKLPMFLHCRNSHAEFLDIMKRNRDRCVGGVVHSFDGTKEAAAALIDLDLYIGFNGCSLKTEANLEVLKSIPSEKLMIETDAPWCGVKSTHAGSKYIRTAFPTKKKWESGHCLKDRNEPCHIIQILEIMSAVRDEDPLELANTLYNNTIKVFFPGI

Tests used:
Assay in all cases: log2 fold change, soluble protein after heating vs DMSO (PISA); higher = thermal stabilisation; K562 cells, 10 uM, 30 min; active = over 0.2 and 3.5 SD of the protein, either way, in both replicates (recomputed)
[1] = compound: CS(=O)(=O)c1ccc(-c2cnc(N)c(C(=O)Nc3ccccc3)n2)cc1
Summary of the method: (§1)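 K562 cells at 2×10^6 cells/mL were treated for 30 min with 10 μM compound, and aliquots were heated for 3 min over 48°C-58°C before pooling. Extraction used PBS with 0.5% NP-40 at 4°C, and soluble protein was the supernatant after 21,000xg for 90 min, measured by TMTpro 16plex LC-MS/MS with channel sums equalised. Thermal stability values, relative to control samples and from duplicates, are log2 fold changes.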

crizotinib = compound: C[C@@H](Oc1cc(-c2cnn(C3CCNCC3)c2)cnc1N)c1c(Cl)ccc(F)c1Cl [crizotinib]
Summary of the method: as §1

[2] = compound: C[C@@H]1COCCN1C2=NC(=NC(=C2)C3(CC3)S(=O)(=O)C)C4=C5C=CNC5=CC=C4
Summary of the method: as §1

[3] = compound: C[C@H](C1=CC=C(C=C1)C(=O)NC2=C3C=CNC3=NC=C2)N
Summary of the method: as §1

gandotinib = compound: Cc1cc(Nc2cc(CN3CCOCC3)c3nc(C)c(Cc4ccc(Cl)cc4F)n3n2)n[nH]1 [gandotinib]
Summary of the method: as §1

[4] = compound: Cc1cc(SCc2sc(-c3ccc(C(F)(F)F)cc3)nc2C)ccc1OCC(=O)O
Summary of the method: as §1

doramapimod = compound: Cc1ccc(-n2nc(C(C)(C)C)cc2NC(=O)Nc2ccc(OCCN3CCOCC3)c3ccccc23)cc1 [doramapimod]
Summary of the method: as §1

ispinesib = compound: Cc1ccc(C(=O)N(CCCN)[C@@H](c2nc3cc(Cl)ccc3c(=O)n2Cc2ccccc2)C(C)C)cc1 [ispinesib]
Summary of the method: as §1

tozasertib = compound: Cc1cc(Nc2cc(N3CCN(C)CC3)nc(Sc3ccc(NC(=O)C4CC4)cc3)n2)n[nH]1 [tozasertib]
Summary of the method: as §1

duvelisib = compound: C[C@H](Nc1ncnc2nc[nH]c12)c1cc2cccc(Cl)c2c(=O)n1-c1ccccc1 [duvelisib]
Summary of the method: as §1

Measured: log2 fold change

SUCLG1 (UniProt P53597)
inactive: [1] 0.016 | crizotinib -0.028 | [2] 0.079 | [3] -0.072 | gandotinib -0.048 | [4] -0.004 | doramapimod -0.019 | ispinesib -0.012

TAF4 (UniProt O00268)
inactive: [1] -0.09 | crizotinib 0.019 | [2] 0.046 | gandotinib -0.094 | tozasertib -0.058 | doramapimod -0.033 | ispinesib -0.031

SYMPK (UniProt Q92797)
inactive: [1] -0.031 | crizotinib -0.189 | [2] 0.046 | [3] -0.026 | gandotinib -0.155 | [4] 0.235 | doramapimod -0.09 | ispinesib -0.023

TANK (UniProt Q92844)
inactive: [1] -0.032 | crizotinib 0.287 | [2] -0.021 | [3] 0.069 | gandotinib 0.135 | [4] 0.091 | doramapimod -0.015 | ispinesib -0.064

STK38 (UniProt Q15208)
inactive: [1] 0.081 | crizotinib -0.087 | [2] 0.089 | [3] -0.031 | gandotinib -0.024 | [4] 0.072 | doramapimod -0.011 | ispinesib 0.026

SYF2 (UniProt O95926)
inactive: [1] -0.147 | crizotinib 0.206 | [2] -0.031 | [3] 0.157 | gandotinib 0.11 | [4] -0.078 | doramapimod 0.022 | ispinesib -0.079

STK38L (UniProt Q9Y2H1)
inactive: [1] 0.028 | crizotinib 0.065 | [2] 0.069 | [3] -0.055 | gandotinib -0.105 | [4] 0.116 | doramapimod -0.022 | ispinesib -0.093

SURF1 (UniProt Q15526)
inactive: [1] -0.001 | crizotinib -0.008 | [2] 0.043 | [3] -0.013 | gandotinib -0.066 | [4] 0.032 | doramapimod 0.01 | ispinesib -0.181

TAX1BP1 (UniProt Q86VP1)
inactive: [1] -0.001 | crizotinib -0.009 | [2] -0.058 | [3] 0.042 | gandotinib 0.156 | [4] 0.069 | doramapimod 0.062 | ispinesib -0.067

TAMM41 isoform 3 (UniProt Q96BW9)
active: crizotinib -0.232 | ispinesib -0.249
inactive: [1] 0.064 | [2] 0.073 | [3] -0.016 | gandotinib -0.04 | [4] 0.05 | doramapimod -0.048

SUGP1 (UniProt Q8IWZ8)
inactive: [1] 0.021 | crizotinib -0.001 | [2] 0.015 | [3] -0.064 | gandotinib -0.077 | [4] 0.09 | doramapimod -0.033 | ispinesib 0.019

TBC1D10B (UniProt Q4KMP7)
inactive: [1] 0.012 | crizotinib -0.04 | [2] 0.013 | [3] -0.153 | gandotinib 0.046 | [4] 0.092 | doramapimod 0.021 | ispinesib 0.083

STX17 (UniProt P56962)
inactive: [1] 0.197 | crizotinib -0.27 | [2] 0.025 | [3] -0.171 | gandotinib -0.026 | [4] 0.001 | doramapimod 0.031 | ispinesib -0.246

Reprinted from the entries so far (7 entries):
STK38L (UniProt Q9Y2H1)
inactive: [1] 0.028 | crizotinib 0.065 | [2] 0.069 | [3] -0.055 | gandotinib -0.105 | [4] 0.116 | doramapimod -0.022 | ispinesib -0.093

SURF1 (UniProt Q15526)
inactive: [1] -0.001 | crizotinib -0.008 | [2] 0.043 | [3] -0.013 | gandotinib -0.066 | [4] 0.032 | doramapimod 0.01 | ispinesib -0.181

TAX1BP1 (UniProt Q86VP1)
inactive: [1] -0.001 | crizotinib -0.009 | [2] -0.058 | [3] 0.042 | gandotinib 0.156 | [4] 0.069 | doramapimod 0.062 | ispinesib -0.067

TAMM41 isoform 3 (UniProt Q96BW9)
active: crizotinib -0.232 | ispinesib -0.249
inactive: [1] 0.064 | [2] 0.073 | [3] -0.016 | gandotinib -0.04 | [4] 0.05 | doramapimod -0.048

SUGP1 (UniProt Q8IWZ8)
inactive: [1] 0.021 | crizotinib -0.001 | [2] 0.015 | [3] -0.064 | gandotinib -0.077 | [4] 0.09 | doramapimod -0.033 | ispinesib 0.019

TBC1D10B (UniProt Q4KMP7)
inactive: [1] 0.012 | crizotinib -0.04 | [2] 0.013 | [3] -0.153 | gandotinib 0.046 | [4] 0.092 | doramapimod 0.021 | ispinesib 0.083

STX17 (UniProt P56962)
inactive: [1] 0.197 | crizotinib -0.27 | [2] 0.025 | [3] -0.171 | gandotinib -0.026 | [4] 0.001 | doramapimod 0.031 | ispinesib -0.246

The results go on.

SUCLA2 (UniProt Q9P2R7)
inactive: [1] 0.034 | crizotinib 0.001 | [2] 0.087 | [3] -0.011 | gandotinib -0.058 | [4] 0.012 | doramapimod 0.003 | ispinesib -0.064

SYNJ2 (UniProt O15056)
inactive: [1] 0.112 | crizotinib 0.06 | [2] -0.037 | duvelisib -0.242 | gandotinib -0.008 | [4] 0.257 | doramapimod -0.003 | ispinesib -0.075

SURF2 (UniProt Q15527)
inactive: [1] -0.009 | crizotinib 0.084 | [2] -0.02 | [3] -0.118 | gandotinib 0 | [4] 0.04 | doramapimod -0.068 | ispinesib 0.038

TARS2 (UniProt Q9BW92)
inactive: [1] 0.022 | crizotinib 0.024 | [2] 0.094 | [3] -0.002 | gandotinib -0.173 | [4] 0.009 | doramapimod 0.015 | ispinesib -0.094

SUMO1 (UniProt P63165)
inactive: [1] -0.125 | crizotinib 0.06 | [2] -0.045 | [3] 0.176 | gandotinib 0.064 | [4] -0.039 | doramapimod -0.038 | ispinesib 0.039

TAOK3 (UniProt Q9H2K8)
inactive: [1] -0.051 | crizotinib -0.03 | [2] -0.008 | [3] -0.13 | gandotinib -0.08 | [4] 0.057 | doramapimod 0.023 | ispinesib 0.01

STK4 (UniProt Q13043)
inactive: [1] 0.009 | crizotinib -0.01 | [2] 0.032 | [3] 0.036 | gandotinib 0.043 | [4] -0.004 | doramapimod -0.008 | ispinesib -0.03

SUPT5H (UniProt O00267)
inactive: [1] 0.057 | crizotinib 0.049 | [2] 0.129 | [3] -0.057 | gandotinib -0.043 | [4] 0.079 | doramapimod -0.043 | ispinesib 0.02

SUN1 isoform 9 (UniProt O94901)
inactive: [1] -0.03 | crizotinib -0.067 | [2] -0.005 | [3] 0.006 | gandotinib -0.052 | [4] -0.017 | doramapimod 0.089
active: ispinesib -0.324

STXBP5L (UniProt Q9Y2K9)
inactive: [1] -0.111 | crizotinib -0.128 | [3] -0.01 | duvelisib -0.026 | gandotinib 0.108 | [4] 0.2 | doramapimod -0.04

SULT1A1 (UniProt P50225)
inactive: [1] -0.019 | crizotinib 0.065 | [2] 0.065 | [3] -0.073 | gandotinib -0.029 | [4] 0.035 | doramapimod 0.016 | ispinesib -0.018

SUPT16H (UniProt Q9Y5B9)
inactive: [1] 0.138 | crizotinib -0.062 | [2] 0.251 | [3] -0.093 | gandotinib -0.024 | [4] 0.248 | doramapimod -0.047 | ispinesib 0.028

SUZ12 (UniProt Q15022)
inactive: crizotinib -0.009 | duvelisib -0.495 | [4] 0.103 | doramapimod 0.038 | ispinesib 0.097

STK35 (UniProt Q8TDR2)
inactive: [3] -0.188 | duvelisib 0.142 | [4] -0.002 | ispinesib 0.251

TATDN1 isoform 2 (UniProt Q6P1N9)
inactive: ispinesib -0.154

SVBP (UniProt Q8N300)
inactive: [1] 0.032 | [2] 0.131 | [3] -0.024 | duvelisib 0.003 | gandotinib 0.129 | tozasertib -0.012 | [4] -0.079 | ispinesib 0.011
